In all, about 3,200 compounds were measured (“TSA(with NAD+) / Primary screening (TSA) / delta Tm (K)”: median about -0.04, highest 2% from about 0.37 on). Some of the results follow.
These compounds were tested against NAD-dependent deacetylase Sirtuin 1 (human, UniProt Q96EB6) (assay: primary screen, delta tm). Conditions: 10 µM.
Parameters: single well (n = 1, as 'the same TSA')

The chains behind the UniProt entries cited, without tags or fusion partners. Residues count along the entry.
UniProt Q96EB6, 2-747 limits assumed: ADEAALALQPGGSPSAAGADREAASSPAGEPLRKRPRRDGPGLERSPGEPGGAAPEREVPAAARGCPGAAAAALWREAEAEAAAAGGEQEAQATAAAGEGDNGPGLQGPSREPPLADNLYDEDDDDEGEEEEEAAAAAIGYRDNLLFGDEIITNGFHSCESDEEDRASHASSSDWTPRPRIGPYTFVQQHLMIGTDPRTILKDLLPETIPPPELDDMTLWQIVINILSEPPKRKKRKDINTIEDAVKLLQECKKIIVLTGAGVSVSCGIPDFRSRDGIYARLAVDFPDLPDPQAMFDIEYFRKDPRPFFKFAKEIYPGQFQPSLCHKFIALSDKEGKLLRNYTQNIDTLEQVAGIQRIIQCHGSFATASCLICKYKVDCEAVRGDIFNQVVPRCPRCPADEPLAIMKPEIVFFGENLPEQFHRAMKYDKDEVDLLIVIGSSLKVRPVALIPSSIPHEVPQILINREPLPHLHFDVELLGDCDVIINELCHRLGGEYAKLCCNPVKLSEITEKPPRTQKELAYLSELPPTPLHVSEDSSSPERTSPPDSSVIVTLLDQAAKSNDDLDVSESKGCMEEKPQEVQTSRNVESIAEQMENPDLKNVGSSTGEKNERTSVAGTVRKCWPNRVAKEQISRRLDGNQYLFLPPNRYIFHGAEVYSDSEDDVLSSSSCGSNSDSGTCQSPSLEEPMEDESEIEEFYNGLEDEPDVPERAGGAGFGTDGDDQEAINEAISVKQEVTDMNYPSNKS

| Structure (SMILES) | TSA(with NAD+) / Primary screening (TSA) / delta Tm (K) |
| --- | --- |
| OC(CNc1ncccn1)c1ccc(Cl)cc1 (stereo not shown) | -0.04 |
| Cc1nc(NCCc2ccccc2)sc1C(=O)O | -0.19 |
| Cc1cccc(-c2cccc(CNC(=O)c3cccnc3S)c2)c1 | 0.33 |
| Cc1ccc(C(=O)OCC(=O)Nc2c(C)n(C)n(-c3ccccc3)c2=O)cc1O | -0.22 |
| Cc1nn(Cc2ccc(Cl)cc2)c(Cl)c1-c1nc(-c2ccccc2)c(-c2ccccc2)[nH]1 | 0.11 |
| O=C(CSc1nnc(Nc2cccc(F)c2)s1)NCc1ccco1 | -0.09 |
| Cc1ccc(N(C)S(=O)(=O)c2cccc(C(=O)OCc3ccc(Cl)cc3)c2)cc1 | -0.03 |
| Cc1nc(-c2ccc(CCNC(=O)c3ccc(NC(=O)c4cccs4)cc3)s2)cs1 | 0.58 |
| COc1ccc(CNCc2ccc(N3CCCC3=O)cc2)c(OC)c1 | -0.11 |
| Cn1c(=O)[nH]c2ccc(C(=O)O)cc21 | 0.01 |
| Cc1ccc(C(=O)C2=C(O)C(=O)N(CCCN3CCOCC3)C2c2cccc([N+](=O)[O-])c2)cc1 (stereo not shown) | -0.13 |
| CC(C)(C)c1cc(NC(=O)CSc2nnc(NCc3ccco3)s2)on1 | -0.02 |
| COc1cc(CNC(=O)C2(C)CCOCC2)c2ccccc2n1 | -0.02 |
| COc1ccc(C(=O)C2=C(O)C(=O)N(CCCN3CCOCC3)C2c2cccs2)cc1C (stereo not shown) | -0.09 |
| COC(=O)C[C@H](N)C(=O)O | 0.02 |
| Cc1ccc(N)c(OCC(F)(F)F)c1 | -0.18 |
| Cc1ccc(-n2c(C)c(C)c3c(N)ncnc32)cc1 | -0.11 |
| C[C@H](N)C(N)=O | 0.16 |
| CC(CC(=O)N1CCN(c2ccc3nccnc3n2)CC1)c1ccccc1 (stereo not shown) | -0.06 |
| CCN(C(=O)c1ccc(Br)cc1F)c1ccncc1 | 0.06 |
| CCc1cc2c(N3CCC(CCN4CCN(C)CC4)CC3)ncnc2s1 | -0.06 |
| CN(c1cccc(Cl)c1)S(=O)(=O)c1cccc(C(=O)Nc2ccc(C(N)=O)cc2)c1 | -0.08 |
| NC(=O)c1cc(-c2ccccc2)nc2ccccc12 | -0.08 |
| O=C(O)CSc1ccc2c3c(cccc13)C(=O)c1ccccc1-2 | -0.23 |
| Oc1ccc(N2CCN(c3ncnc4sc5c(c34)CCC5)CC2)cc1 | -0.19 |
| Cc1cc(C)c2cc(CN3CCC(C(N)=O)CC3)[nH]c2c1 | -0.11 |
| CCOC(=O)C(C)N1CCN(S(=O)(=O)c2cc(C(N)=O)n(C)c2)CC1 (stereo not shown) | -0.12 |
| C#CCNC(=O)c1ccc2[nH]c3c(c2c1)CCCC3 | -0.38 |

Compounds from the list above that contain a furan ring, fused or not, in the order listed:

| Structure (SMILES) | TSA(with NAD+) / Primary screening (TSA) / delta Tm (K) |
| --- | --- |
| O=C(CSc1nnc(Nc2cccc(F)c2)s1)NCc1ccco1 | -0.09 |
| CC(C)(C)c1cc(NC(=O)CSc2nnc(NCc3ccco3)s2)on1 | -0.02 |

Reference: publication PMC6925144, “A prospective compound screening contest identified broader inhibitors for Sirtuin 1” (Scientific Reports, 2019)
